According to article PMC7819943, “Rice protein-binding microarrays: a tool to detect cis-acting elements near promoter regions in rice”:
The other results are listed elsewhere or left out.

The chains behind the UniProt entries cited, without tags or fusion partners.
UniProt Q0JBA9, entry or part of it: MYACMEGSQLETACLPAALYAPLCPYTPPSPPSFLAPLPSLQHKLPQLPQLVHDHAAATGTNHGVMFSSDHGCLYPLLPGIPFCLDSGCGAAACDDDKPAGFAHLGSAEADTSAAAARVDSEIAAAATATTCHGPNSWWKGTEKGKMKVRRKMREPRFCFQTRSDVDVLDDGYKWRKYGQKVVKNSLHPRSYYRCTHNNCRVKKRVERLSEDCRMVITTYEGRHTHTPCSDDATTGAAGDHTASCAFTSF

biological target: OsWRKY34 (Oryza sativa, UniProt Q0JBA9 1-250); experiment: protein-binding microarray (RPBM); PBS, 2% BSA, 51.3 ng/ul salmon testes DNA, 50 uM zinc acetate, 200 nM TF, 25 C, 1 h; high values mean tight binding; conditions: protein: recombinant; tags: N-terminal polyhistidine and DsRed monomer fusion (pET32a); label: CyDye5-dUTP incorporated in the synthesized complementary strand; 3' TTTTT single-stranded linker to array surface; dsDNA, one strand shown
Summary of the method: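 The binding signal is fluorescence intensity per array feature (arbitrary units). Readings came from an Axon 4000B scanner after a washed, 2% BSA-blocked, double-stranded custom Agilent array had been incubated for 1 h at 25 °C with 200 nM protein and 50 µM zinc acetate. The protein was a Ni–NTA-purified transcription factor fused N-terminally to polyhistidine and DsRed, expressed in E. coli BL21-CodonPlus.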

Row | Sequence | binding signal
1 | TCTTCACCGGCTGGGTTGTCGTTGCAGCTCGCCGGCACACCGGAGTCACCTAGTGCAG | 8420 fluorescence intensity (a.u.)
2 | GTGTCATCGTTGCTGGTCGCCTGATCGATCCCTGATGCTACGGAGTCACCTAGTGCAG | 9170 fluorescence intensity (a.u.)
3 | ATTTGAATACAGTTTTGTTTTGTTGTCTAGATTCAGGGATCGGAGTCACCTAGTGCAG | 8640 fluorescence intensity (a.u.)
4 | CCGCTCAGGATATCGTCTTGTTTTTCATATTCCCCATCTCCGGAGTCACCTAGTGCAG | 11800 fluorescence intensity (a.u.)
5 | TTGGTTTTCCGGCCGTTTTCGATCGCCTGACGCCCAGGAACGGAGTCACCTAGTGCAG | 9590 fluorescence intensity (a.u.)
6 | ACTACAACGAGTACCTCTCCCACTACATTGGCCTGCATCTCGGAGTCACCTAGTGCAG | 9690 fluorescence intensity (a.u.)
7 | ACACCTTTCTCGTCTCTACTTCCTTTGGTCATTTTGTCTCCGGAGTCACCTAGTGCAG | 14200 fluorescence intensity (a.u.)
8 | TCATTCTAGCATTTCCCACATTCTATCTAGATTCATTAACCGGAGTCACCTAGTGCAG | 10100 fluorescence intensity (a.u.)
9 | ATGGCCGCTGTCTTATGTCGTCTCGTTCAAATAAAATCTCCGGAGTCACCTAGTGCAG | 8370 fluorescence intensity (a.u.)
10 | GTTGCCCAAGTTGGTCGTCGGAAGGCTGGAACCTAAGTTACGGAGTCACCTAGTGCAG | 8150 fluorescence intensity (a.u.)
11 | ACGCCACGCGCGCGAGCGAGCACTAGCGATCGATCAGGCCCGGAGTCACCTAGTGCAG | 9390 fluorescence intensity (a.u.)
12 | TGAATCATAGTTAGGATTGTGTTTTTTCTTTCTTTTTACACGGAGTCACCTAGTGCAG | 8250 fluorescence intensity (a.u.)
13 | GGCAACAACGGCCTCCACCGCCATCACTCCGGCACCCTCACGGAGTCACCTAGTGCAG | 8220 fluorescence intensity (a.u.)
14 | GTCTTCTCTCGTAGTCGGGTCTTCCTGTCGTCGGGTTCTTCGGAGTCACCTAGTGCAG | 11100 fluorescence intensity (a.u.)
15 | GCTCCCTGCTGCCATATCCTATCATCTCCTCTCTTCCTCTCGGAGTCACCTAGTGCAG | 8540 fluorescence intensity (a.u.)
16 | ATCCGTTGCCCTCGCTCCTATAACTGCGTTGACATGTCGCCGGAGTCACCTAGTGCAG | 9550 fluorescence intensity (a.u.)
17 | GGAATGGGGCATTGTCTAGTCCATGATTAGGTTGGTTTTTCGGAGTCACCTAGTGCAG | 12000 fluorescence intensity (a.u.)
18 | CCCTAAGTTACATTCTCTACAATATTGTTCTCCAAAATTCCGGAGTCACCTAGTGCAG | 8080 fluorescence intensity (a.u.)
19 | ACCAATATTCCATACTTAAATTTAATGCTACTTATCTCACCGGAGTCACCTAGTGCAG | 8230 fluorescence intensity (a.u.)
20 | GAACTAACGCGCTTCTCATTTTCATACTCACCATCAAATACGGAGTCACCTAGTGCAG | 8200 fluorescence intensity (a.u.)
21 | AATTTGTTTCCGCCGCTGCTGCACGCGCCGTGAGGCGTGACGGAGTCACCTAGTGCAG | 8480 fluorescence intensity (a.u.)
22 | CCCCACAGCGCAGTGTCCCACGCGGCCAGCACGCACTCTCCGGAGTCACCTAGTGCAG | 8400 fluorescence intensity (a.u.)
23 | GCCCATCTCTTATTCCTCGTACCCCTTTTTTTTTTTTGCCCGGAGTCACCTAGTGCAG | 9180 fluorescence intensity (a.u.)
24 | CCATCATTAATAGTTCTGGACCATCCAATATATACTGTCTCGGAGTCACCTAGTGCAG | 8840 fluorescence intensity (a.u.)
25 | ACTCCACACCCACACTACTCCTCCCAGGCTGCCTGCCTAACGGAGTCACCTAGTGCAG | 9330 fluorescence intensity (a.u.)
26 | GGTTGAACTGAATCATATCAAAGCCAGGTCAACACAGAAACGGAGTCACCTAGTGCAG | 9340 fluorescence intensity (a.u.)
27 | CCGTGTCCGTTATCGTCCGTCGGTTTCCGTGTCCGATTCTCGGAGTCACCTAGTGCAG | 9950 fluorescence intensity (a.u.)

Row | Sequence | binding signal
28 | ATTATCCTGATCAAAATTCCCGCAATTCCTTAACACATGTCGGAGTCACCTAGTGCAG | 10200 fluorescence intensity (a.u.)
29 | ATCGCTACTCCTTTTTTTTTTTGGAAAAATATCCAAAAATCGGAGTCACCTAGTGCAG | 8130 fluorescence intensity (a.u.)
30 | GCAAAAGCCAAACTGAATTCCCGACGCGTGCGCGCGCGCACGGAGTCACCTAGTGCAG | 8180 fluorescence intensity (a.u.)
31 | TTAGGATTCTAGTATTAGCCTTTTCGTTATCGTTGACCAACGGAGTCACCTAGTGCAG | 13300 fluorescence intensity (a.u.)
32 | TCTCACATGTTTGACCATTCGCCTTATTCAAAAATTTTATCGGAGTCACCTAGTGCAG | 12300 fluorescence intensity (a.u.)
33 | GACACGCCAACACACACCATGATCATGCCATGCTTTTCCTCGGAGTCACCTAGTGCAG | 8430 fluorescence intensity (a.u.)
34 | CGCCACCGCCACCATCGCCGCCGCCGCCGCGAAGCTCGCCCGGAGTCACCTAGTGCAG | 8720 fluorescence intensity (a.u.)
35 | TCGACTCCTCACTCATCCTACTCGGCAACTCACTCTGCTCCGGAGTCACCTAGTGCAG | 9450 fluorescence intensity (a.u.)
36 | CCCTGCTCGCATCTCCTTAGCCTAGCCCATCTCTCATCCACGGAGTCACCTAGTGCAG | 10700 fluorescence intensity (a.u.)
37 | GGCCTGCACACGGAATCTCGCCTGATATCAGGCCCATCTCCGGAGTCACCTAGTGCAG | 8220 fluorescence intensity (a.u.)
38 | CAACCTTGCACCAGTTGGGCTCGTCCATGCTCCATACCCCCGGAGTCACCTAGTGCAG | 8560 fluorescence intensity (a.u.)
39 | ACTCGCGCCGTCAAACCACCACCGCCTCCGTCTCCTTCTCCGGAGTCACCTAGTGCAG | 12100 fluorescence intensity (a.u.)
40 | CTATGTGTCTCTTGCCGGGTTCTTCTTCTCGGGACTCATGCGGAGTCACCTAGTGCAG | 8230 fluorescence intensity (a.u.)
41 | CCACCACCCTTTGGTTTGCTTCTATGCTTCACAGGTGCAGCGGAGTCACCTAGTGCAG | 8220 fluorescence intensity (a.u.)
42 | CGATTTGGGTAGTATCGTGGTTTCAGCCGATCTTACTTGACGGAGTCACCTAGTGCAG | 9410 fluorescence intensity (a.u.)
43 | TTTTTATTAAAACGTTCGACCACTCGTCTTATTCAAATTTCGGAGTCACCTAGTGCAG | 10100 fluorescence intensity (a.u.)
44 | GCAGCCTTGAACCCTTGATTAGCCTTGTCATGTAAACCTACGGAGTCACCTAGTGCAG | 9220 fluorescence intensity (a.u.)
45 | AGCTCCACATACCACCATCTATTCATTTTAACACAAAGATCGGAGTCACCTAGTGCAG | 8500 fluorescence intensity (a.u.)
46 | TGCATGCTGACCACGGCAACCGGTTGGGTCCCCGTGGGCTCGGAGTCACCTAGTGCAG | 8220 fluorescence intensity (a.u.)
47 | TTTATTTTCCAACCCATCTCTCTTCTTTCTGCGCACACGTCGGAGTCACCTAGTGCAG | 11300 fluorescence intensity (a.u.)
48 | TGGTACCCTGTGTTGTAATAACCATAGCCTGGCCCTGTTACGGAGTCACCTAGTGCAG | 8860 fluorescence intensity (a.u.)
49 | GCATCGAATTTCACCGCCAACACACCCATCATAGTTTACGCGGAGTCACCTAGTGCAG | 9450 fluorescence intensity (a.u.)
50 | AACTGTGTTCCTTCCCTTCTTTCCTAACTCACCTATCTCCCGGAGTCACCTAGTGCAG | 8230 fluorescence intensity (a.u.)
51 | TATATCGTTGTCTTTTTCTACCATCTATCTTATTTAAAAACGGAGTCACCTAGTGCAG | 9210 fluorescence intensity (a.u.)
52 | GATATAAAACTCTTGCATCTACGATAATTCTCCAATCCTACGGAGTCACCTAGTGCAG | 8810 fluorescence intensity (a.u.)
53 | TCCATCATGCGTTGCCCGACTGCTGCACATCCGCCACATCCGGAGTCACCTAGTGCAG | 11900 fluorescence intensity (a.u.)
54 | CATGTCAGTTCCATGTCCCAGCTTCACCAATGTGCATTTCCGGAGTCACCTAGTGCAG | 9190 fluorescence intensity (a.u.)

Rewritten as labelled records: part of the list above
GCTCCCTGCTGCCATATCCTATCATCTCCTCTCTTCCTCTCGGAGTCACCTAGTGCAG
  binding signal = 8540 fluorescence intensity (a.u.)
TTTATTTTCCAACCCATCTCTCTTCTTTCTGCGCACACGTCGGAGTCACCTAGTGCAG
  binding signal = 11300 fluorescence intensity (a.u.)
TGGTACCCTGTGTTGTAATAACCATAGCCTGGCCCTGTTACGGAGTCACCTAGTGCAG
  binding signal = 8860 fluorescence intensity (a.u.)
